Results as given in PMC3923796.
Results are given in words; binding and its absence hold for the method and conditions named. Binding seen in cells or lysates may run through a third protein. These calls come from enrichment with a bait or labelling near it, and not all partners need be listed.

By UniProt entry, the sequences of proteins in these tests, tags left out. Residues count along the entry.
UniProt P29317, residues 24-976: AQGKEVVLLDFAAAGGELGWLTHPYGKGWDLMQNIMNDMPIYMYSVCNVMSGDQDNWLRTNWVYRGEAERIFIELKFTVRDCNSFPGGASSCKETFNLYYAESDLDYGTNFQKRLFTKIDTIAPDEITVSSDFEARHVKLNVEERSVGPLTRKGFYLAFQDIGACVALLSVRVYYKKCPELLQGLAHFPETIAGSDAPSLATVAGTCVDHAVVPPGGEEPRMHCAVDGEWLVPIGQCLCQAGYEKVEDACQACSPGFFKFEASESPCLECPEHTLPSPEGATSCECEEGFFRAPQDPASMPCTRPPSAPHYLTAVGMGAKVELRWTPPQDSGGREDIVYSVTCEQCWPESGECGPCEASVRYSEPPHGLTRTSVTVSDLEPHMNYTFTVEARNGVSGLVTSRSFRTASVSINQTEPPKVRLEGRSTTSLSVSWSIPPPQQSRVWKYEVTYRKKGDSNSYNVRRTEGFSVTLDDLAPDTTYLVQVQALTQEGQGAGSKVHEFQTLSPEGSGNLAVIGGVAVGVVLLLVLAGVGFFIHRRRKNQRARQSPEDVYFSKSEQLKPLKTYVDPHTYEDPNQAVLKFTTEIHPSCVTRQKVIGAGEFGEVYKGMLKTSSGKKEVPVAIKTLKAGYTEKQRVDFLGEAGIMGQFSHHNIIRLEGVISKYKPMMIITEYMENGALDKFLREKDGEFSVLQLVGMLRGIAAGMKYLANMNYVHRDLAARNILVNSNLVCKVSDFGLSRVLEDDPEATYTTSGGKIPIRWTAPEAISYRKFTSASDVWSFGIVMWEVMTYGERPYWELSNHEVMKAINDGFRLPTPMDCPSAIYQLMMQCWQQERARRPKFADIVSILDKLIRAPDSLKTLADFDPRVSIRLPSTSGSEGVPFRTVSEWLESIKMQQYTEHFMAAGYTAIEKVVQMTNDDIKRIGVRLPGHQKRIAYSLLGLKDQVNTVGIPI
UniProt P35241: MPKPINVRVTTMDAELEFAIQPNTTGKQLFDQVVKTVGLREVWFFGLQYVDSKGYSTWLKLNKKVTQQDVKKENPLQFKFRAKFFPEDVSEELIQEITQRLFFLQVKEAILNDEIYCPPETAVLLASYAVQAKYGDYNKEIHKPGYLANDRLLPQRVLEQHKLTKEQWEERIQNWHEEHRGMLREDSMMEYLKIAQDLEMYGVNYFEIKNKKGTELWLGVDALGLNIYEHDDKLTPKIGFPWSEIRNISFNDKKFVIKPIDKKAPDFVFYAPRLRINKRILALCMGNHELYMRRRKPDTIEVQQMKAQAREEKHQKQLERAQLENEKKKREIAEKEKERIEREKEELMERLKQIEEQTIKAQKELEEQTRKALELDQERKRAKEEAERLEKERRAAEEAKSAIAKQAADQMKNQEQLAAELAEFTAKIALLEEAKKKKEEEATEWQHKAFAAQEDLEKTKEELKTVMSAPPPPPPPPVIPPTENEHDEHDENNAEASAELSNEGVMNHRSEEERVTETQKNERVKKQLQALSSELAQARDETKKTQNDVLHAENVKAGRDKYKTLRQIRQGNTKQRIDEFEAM
UniProt P35579: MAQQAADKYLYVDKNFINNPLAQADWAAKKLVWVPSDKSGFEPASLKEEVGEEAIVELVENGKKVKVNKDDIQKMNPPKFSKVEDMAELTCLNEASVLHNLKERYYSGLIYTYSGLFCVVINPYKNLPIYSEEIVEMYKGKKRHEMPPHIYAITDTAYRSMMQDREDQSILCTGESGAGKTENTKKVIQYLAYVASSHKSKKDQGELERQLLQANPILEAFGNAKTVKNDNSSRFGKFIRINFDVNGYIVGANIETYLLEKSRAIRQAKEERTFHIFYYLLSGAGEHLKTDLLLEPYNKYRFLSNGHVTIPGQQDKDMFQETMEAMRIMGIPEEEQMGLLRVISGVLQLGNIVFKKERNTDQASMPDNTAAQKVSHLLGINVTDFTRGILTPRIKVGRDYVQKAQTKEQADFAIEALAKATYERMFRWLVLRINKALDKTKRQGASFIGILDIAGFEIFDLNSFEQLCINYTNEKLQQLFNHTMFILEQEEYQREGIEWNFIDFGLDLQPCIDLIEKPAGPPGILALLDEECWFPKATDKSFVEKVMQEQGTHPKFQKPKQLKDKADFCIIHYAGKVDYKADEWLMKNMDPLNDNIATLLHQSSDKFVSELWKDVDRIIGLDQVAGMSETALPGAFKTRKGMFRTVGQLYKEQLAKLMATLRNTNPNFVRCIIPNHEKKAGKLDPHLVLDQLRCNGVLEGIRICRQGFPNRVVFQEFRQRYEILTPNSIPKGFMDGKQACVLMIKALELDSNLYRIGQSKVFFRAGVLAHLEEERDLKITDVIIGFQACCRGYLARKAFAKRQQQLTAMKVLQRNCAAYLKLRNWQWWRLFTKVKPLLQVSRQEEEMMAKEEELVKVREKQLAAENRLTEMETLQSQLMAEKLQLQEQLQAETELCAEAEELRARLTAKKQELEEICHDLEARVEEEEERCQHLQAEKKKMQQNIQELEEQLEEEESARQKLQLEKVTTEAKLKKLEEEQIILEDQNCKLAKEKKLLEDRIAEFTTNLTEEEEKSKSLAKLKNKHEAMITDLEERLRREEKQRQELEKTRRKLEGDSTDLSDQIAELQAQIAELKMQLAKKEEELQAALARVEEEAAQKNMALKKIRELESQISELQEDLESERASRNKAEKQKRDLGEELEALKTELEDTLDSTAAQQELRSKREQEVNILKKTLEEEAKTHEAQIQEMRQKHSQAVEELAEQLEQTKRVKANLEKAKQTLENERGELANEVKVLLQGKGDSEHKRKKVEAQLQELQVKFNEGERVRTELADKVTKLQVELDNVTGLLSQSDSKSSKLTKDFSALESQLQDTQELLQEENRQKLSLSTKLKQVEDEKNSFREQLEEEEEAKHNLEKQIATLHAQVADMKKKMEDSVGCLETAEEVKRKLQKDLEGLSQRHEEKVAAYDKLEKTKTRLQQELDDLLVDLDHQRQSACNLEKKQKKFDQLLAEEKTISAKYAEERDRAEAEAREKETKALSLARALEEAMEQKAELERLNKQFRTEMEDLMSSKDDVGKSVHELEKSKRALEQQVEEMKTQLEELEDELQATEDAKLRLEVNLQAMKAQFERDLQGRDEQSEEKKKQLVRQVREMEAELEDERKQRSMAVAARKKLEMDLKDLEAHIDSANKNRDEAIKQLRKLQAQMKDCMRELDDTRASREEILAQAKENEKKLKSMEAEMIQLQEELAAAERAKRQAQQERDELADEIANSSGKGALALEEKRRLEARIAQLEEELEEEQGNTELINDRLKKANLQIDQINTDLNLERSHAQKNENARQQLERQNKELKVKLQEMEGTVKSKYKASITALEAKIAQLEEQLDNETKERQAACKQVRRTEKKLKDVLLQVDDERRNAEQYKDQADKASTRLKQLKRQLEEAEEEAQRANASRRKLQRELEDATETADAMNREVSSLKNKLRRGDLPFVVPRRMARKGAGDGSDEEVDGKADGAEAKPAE
UniProt P60660: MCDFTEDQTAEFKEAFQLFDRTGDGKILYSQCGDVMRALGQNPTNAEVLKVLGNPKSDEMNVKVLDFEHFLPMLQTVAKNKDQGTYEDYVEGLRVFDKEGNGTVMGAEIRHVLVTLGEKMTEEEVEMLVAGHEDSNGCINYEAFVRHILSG
UniProt O43707: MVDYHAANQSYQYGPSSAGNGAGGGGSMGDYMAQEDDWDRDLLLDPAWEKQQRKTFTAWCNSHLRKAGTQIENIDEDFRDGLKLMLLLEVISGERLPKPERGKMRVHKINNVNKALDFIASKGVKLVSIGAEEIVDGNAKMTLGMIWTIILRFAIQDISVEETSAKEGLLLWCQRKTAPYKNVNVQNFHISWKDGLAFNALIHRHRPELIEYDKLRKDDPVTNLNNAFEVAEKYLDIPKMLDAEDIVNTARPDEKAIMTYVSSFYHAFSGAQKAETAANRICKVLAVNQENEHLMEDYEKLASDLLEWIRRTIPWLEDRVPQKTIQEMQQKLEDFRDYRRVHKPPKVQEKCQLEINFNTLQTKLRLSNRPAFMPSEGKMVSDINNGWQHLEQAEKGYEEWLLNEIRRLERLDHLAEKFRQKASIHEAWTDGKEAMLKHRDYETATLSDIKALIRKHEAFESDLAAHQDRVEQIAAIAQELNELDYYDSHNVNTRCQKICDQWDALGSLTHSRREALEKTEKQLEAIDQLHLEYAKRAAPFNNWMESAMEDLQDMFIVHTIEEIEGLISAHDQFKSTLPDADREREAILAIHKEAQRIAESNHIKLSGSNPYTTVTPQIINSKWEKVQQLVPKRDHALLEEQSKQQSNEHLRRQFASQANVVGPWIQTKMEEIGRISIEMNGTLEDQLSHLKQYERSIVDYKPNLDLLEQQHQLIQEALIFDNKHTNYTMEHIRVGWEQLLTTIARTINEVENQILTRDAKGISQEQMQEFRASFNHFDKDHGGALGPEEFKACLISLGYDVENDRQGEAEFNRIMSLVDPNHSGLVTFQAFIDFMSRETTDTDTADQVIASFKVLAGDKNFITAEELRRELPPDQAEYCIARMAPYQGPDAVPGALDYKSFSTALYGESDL
UniProt P26038: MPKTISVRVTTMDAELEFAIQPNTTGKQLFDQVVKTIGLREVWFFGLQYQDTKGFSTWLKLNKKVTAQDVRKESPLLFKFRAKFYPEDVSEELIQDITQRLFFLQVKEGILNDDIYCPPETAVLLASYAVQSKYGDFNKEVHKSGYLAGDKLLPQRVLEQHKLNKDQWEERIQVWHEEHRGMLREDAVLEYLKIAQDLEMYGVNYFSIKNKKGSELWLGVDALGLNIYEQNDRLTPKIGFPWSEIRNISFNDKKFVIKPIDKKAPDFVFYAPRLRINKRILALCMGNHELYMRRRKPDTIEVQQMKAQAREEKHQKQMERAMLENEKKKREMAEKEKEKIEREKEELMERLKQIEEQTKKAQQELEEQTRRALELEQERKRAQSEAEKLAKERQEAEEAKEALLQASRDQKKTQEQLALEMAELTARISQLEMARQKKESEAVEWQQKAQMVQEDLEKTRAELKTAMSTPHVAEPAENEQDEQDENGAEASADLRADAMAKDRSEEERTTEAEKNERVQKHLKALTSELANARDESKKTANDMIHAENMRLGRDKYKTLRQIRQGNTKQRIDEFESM
UniProt P08670: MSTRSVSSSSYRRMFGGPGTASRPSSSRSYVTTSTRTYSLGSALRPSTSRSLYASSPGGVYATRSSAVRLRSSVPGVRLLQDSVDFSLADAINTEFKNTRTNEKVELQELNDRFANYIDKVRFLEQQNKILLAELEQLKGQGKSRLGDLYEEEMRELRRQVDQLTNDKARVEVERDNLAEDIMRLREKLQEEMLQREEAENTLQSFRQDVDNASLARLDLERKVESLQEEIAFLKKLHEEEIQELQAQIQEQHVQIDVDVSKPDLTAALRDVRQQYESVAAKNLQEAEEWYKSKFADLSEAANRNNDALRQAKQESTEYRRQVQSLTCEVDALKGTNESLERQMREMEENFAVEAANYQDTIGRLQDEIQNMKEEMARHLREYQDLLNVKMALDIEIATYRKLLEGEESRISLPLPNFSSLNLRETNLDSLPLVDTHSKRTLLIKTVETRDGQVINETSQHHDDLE
UniProt P11021, residues 19-654: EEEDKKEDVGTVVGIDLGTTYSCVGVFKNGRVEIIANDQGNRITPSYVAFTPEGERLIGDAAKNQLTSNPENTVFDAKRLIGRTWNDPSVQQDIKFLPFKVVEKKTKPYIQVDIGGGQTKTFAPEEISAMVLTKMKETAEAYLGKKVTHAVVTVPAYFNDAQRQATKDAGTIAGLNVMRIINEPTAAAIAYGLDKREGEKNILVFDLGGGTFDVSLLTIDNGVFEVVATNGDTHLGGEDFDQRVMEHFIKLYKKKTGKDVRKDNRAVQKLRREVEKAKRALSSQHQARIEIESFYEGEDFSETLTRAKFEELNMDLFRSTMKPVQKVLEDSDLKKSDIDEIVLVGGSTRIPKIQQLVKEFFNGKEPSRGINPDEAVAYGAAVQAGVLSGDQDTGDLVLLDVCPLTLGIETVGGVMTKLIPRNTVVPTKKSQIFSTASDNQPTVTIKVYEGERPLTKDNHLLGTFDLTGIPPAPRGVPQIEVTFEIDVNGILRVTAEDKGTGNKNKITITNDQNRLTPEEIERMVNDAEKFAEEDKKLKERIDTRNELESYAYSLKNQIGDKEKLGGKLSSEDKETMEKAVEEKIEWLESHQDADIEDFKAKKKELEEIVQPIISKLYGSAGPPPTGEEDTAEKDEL
UniProt P07355: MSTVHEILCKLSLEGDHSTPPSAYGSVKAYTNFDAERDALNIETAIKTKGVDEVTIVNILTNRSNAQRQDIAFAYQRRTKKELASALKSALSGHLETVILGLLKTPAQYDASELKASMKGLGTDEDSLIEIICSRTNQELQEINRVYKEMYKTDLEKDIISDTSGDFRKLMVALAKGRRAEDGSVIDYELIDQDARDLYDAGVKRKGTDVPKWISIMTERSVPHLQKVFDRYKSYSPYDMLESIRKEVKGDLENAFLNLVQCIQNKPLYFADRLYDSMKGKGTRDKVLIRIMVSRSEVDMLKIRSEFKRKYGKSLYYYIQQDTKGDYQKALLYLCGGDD

T1: calcium and integrin binding protein-1 (CIB1) (human (endogenous in HMVEC-d)) (UniProt Q99828)
T1 sequence: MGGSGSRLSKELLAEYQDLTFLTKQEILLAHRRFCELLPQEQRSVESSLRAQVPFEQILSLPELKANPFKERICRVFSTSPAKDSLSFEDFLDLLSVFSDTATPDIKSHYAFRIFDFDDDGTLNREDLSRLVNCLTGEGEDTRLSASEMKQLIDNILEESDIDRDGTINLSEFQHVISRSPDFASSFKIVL


What was measured:
[1] = target: T1, calcium and integrin binding protein-1 (CIB1) (human (endogenous in HMVEC-d)); assay: affinity purification with mass spectrometry; 200 µg lysate of HMVEC-d cells infected with KSHV for 10 min (or mock), immunoprecipitated overnight at 4°C with mouse anti-CIB1 or rabbit anti-EphA2; 4-20% SDS-PAGE, Coomassie bands analysed by LC-ESI-MS
[2] = target: EphrinA2 (EphA2) (human (endogenous in HMVEC-d)) (UniProt P29317); assay: as above

binding [1]	binding [2]	Molecule
binds	–	Radixin (from UniProt P35241 1-583)
binds	–	Ezrin (from UniProt P15311 1-586)
binds	–	Hsp70 (human (endogenous in HMVEC-d))
binds	–	Peroxiredoxin I (protein, UniProt Q06830 1-199) MSSGNAKIGHPAPNFKATAVMPDGQFKDISLSDYKGKYVVFFFYPLDFTFVCPTEIIAFSDRAEEFKKLNCQVIGASVDSHFCHLAWVNTPKKQGGLGPMNIPLVSDPKRTIAQDYGVLKADEGISFRGLFIIDDKGILRQITVNDLPVGRSVDETLRLVQAFQFTDKHGEVCPAGWKPGSDTIKPDVQKSKEYFSKQK

Continued, molecule first:

Molecule	binding [1]	binding [2]
myosin IIA (from UniProt P35579 1-1960)	binds	binds
Myosin L6 (from UniProt P60660 1-151)	binds	binds
alpha-actinin 4 (from UniProt O43707 1-911)	binds	–
Moesin (from UniProt P26038 1-577)	binds	–
vimentin (from UniProt P08670 1-466)	binds	binds
Bip (from UniProt P11021 19-654)	binds	–
annexin A2 (from UniProt P07355 1-339)	binds	binds
